# Measurements as given in PubChem BioAssay (Tox21).
# Chains of the proteins cited; added tags and fusions are not shown. Lines headed by an entry give the natural chain unless they say otherwise; changes in a name come on top.
# UniProt P28223, whole entry, looked up: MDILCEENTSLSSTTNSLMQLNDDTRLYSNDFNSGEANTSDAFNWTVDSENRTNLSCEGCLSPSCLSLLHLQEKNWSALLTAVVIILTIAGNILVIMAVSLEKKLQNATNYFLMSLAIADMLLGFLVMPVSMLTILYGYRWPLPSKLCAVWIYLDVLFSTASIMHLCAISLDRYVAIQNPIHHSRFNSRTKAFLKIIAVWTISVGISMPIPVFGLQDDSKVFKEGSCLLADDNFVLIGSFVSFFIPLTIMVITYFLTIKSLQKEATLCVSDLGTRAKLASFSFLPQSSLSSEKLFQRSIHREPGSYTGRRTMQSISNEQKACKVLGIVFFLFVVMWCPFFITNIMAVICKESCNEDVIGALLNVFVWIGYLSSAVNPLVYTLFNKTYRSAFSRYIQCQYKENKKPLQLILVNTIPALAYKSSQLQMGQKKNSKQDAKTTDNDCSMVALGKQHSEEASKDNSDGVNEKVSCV
# UniProt P11229: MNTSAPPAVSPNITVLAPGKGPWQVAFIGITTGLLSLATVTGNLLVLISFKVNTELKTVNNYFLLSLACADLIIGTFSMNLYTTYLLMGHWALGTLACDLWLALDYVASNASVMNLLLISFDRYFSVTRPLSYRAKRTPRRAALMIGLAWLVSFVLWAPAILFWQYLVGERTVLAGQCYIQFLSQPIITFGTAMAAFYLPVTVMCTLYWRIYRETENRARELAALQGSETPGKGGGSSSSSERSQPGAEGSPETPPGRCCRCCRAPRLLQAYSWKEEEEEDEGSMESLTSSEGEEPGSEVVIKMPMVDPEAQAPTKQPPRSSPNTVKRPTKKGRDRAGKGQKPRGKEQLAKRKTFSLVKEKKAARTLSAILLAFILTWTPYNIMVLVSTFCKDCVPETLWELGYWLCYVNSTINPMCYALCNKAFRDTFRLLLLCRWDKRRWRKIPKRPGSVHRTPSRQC
# UniProt P14416, whole entry, looked up: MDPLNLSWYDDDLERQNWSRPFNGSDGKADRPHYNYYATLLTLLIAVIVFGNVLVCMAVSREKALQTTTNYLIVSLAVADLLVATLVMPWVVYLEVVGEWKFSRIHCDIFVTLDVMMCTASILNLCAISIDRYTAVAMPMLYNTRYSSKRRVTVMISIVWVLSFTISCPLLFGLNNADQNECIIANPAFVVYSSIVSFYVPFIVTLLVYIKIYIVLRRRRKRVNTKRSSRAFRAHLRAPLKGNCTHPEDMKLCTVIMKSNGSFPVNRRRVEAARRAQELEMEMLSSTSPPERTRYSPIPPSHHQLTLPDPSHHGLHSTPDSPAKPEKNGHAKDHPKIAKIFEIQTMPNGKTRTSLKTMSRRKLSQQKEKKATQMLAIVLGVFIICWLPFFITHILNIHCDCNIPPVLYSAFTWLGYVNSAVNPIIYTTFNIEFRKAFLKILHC
# “And” between values parts separate entries of the source, which are not always exact repeats. Equal values may be shown once. This list was built around the results that the source calls inconclusive (neither active nor inactive); the mix of calls is not that of the screen. For part of these data: A potency beside an inconclusive call is a rough fit, not a confirmed value. The source made the active and inactive calls. Unless noted, calls follow the shape of the full dose curve.
# Legend:
# [1] = Nuclear factor erythroid 2-related factor 2/antioxidant responsive element (Nrf2/ARE) small molecule agonists: luciferase reporter gene qHTS assay in human keratinocytes (AID 1919969); conditions: KeratinoSens HaCaT ARE-luciferase, luminescence, 24 h; activity, positive = activation: at 92.4 µM (top of the series); also: nearly all actives have a fitted effect of over 35% in size; also: potency is read from the fitted curve at half-maximal effect; as to activity, positive = activation: % is scaled to controls: 0 for no effect and ±100 for the full control effect
# [2] = target: 5-hydroxytryptamine receptor 2A (Homo sapiens) (UniProt P28223); test: 5-hydroxytryptamine receptor 2A (HTR2A) small molecule agonists, cell-based qHTS assay (AID 1963587); also: nearly all actives have a fitted effect of over 30% in size; also: potency is read from the fitted curve at half-maximal effect; as to activation: % is scaled to controls: 0 for no effect and ±100 for the full control effect
# Outline: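 HTR2A-CHO cells, plated 18 h at 37 C/5% CO2, dye-loaded 1 h at 37 C; compounds in DMSO added by pin tool (agonist mode). Intracellular calcium flux read as kinetic fluorescence on FDSS over 2 min at 1 s intervals.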
# [3] = cAMP Responsive Elements (CRE) small molecule agonists, cell-based qHTS assay (AID 1963590); conditions: CRE-bla HEK293T, beta-lactamase FRET ratio, 3 h; activation: at 92.4 µM (top of the series) unless noted; also: potency is read from the fitted curve at half-maximal effect
# Outline: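 Test agents in DMSO were incubated 3 h at 37 C/5% CO2 with CRE-bla HEK 293T cells seeded 18 h earlier; LiveBLAzer B/G FRET substrate was added and read after 2 h at room temperature.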
# [4] = target: Muscarinic acetylcholine receptor M1 (Homo sapiens) (UniProt P11229); test: Cholinergic receptor muscarinic 1 (CHRM1) small molecule antagonists, cell-based qHTS assay (AID 1963588); also: nearly all actives have a fitted effect of over 40% in size; also: potency is read from the fitted curve at half-maximal effect
# Outline: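 Compounds were tested at 15 concentrations in three independent runs. Dye-loaded CHRM1-CHO cells were exposed 5 min at room temperature before stimulation by acetylcholine added at 50nM. Intracellular calcium was read kinetically on FDSS for 3 min.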
# [5] = cAMP Responsive Elements (CRE) small molecule antagonists, cell-based qHTS assay (AID 1963591; active = well fitted inhibition curve with a large enough effect in the signal ratio in the repeat runs, not every such curve was filed as active; inconclusive = weak or mixed curves, or effect the other way; the % refers to the signal ratio; also: potency is read from the fitted curve at half-maximal effect); conditions: CRE-bla HEK293T, beta-lactamase FRET ratio; activity change, negative = inhibition: at 92.4 µM (top of the series) unless noted
# Outline: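 Reporter line CRE-bla HEK 293T in dialyzed-FBS DMEM; cells preincubated 18 h, treated 3 h with compound plus NKH477 (0.25 uM final); LiveBLAzer FRET, 2 h RT.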
# [6] = target: Beta-2 adrenergic receptor (Homo sapiens) (UniProt P07550); test: Adrenergic beta2 receptor (ADRB2) small molecule agonists, cell-based qHTS assay (AID 1963593); conditions: CHO-ADRB2 cells, cAMP HTRF, 30 min; activation: at 92.4 µM (top of the series) unless noted; also: potency is read from the fitted curve at half-maximal effect;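 as to activation: CHO cells stably overexpressing human ADRB2; % is scaled to controls: 0 for no effect and ±100 for the full control effect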
# Outline: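 CHO cells stably over-expressing ADRB2 were plated overnight at 37C, then dosed with compounds plus a stimulation mix containing 100uM IBMX and 25uM Ro-20-1724 for 0.5hr at room temperature. cAMP was measured by HTRF competition, 1hr.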
# [7] = target: D(2) dopamine receptor (Homo sapiens) (UniProt P14416); test: Dopamine D2 receptor (DRD2) small molecule antagonists, cell-based qHTS assay (AID 1963595; active = well fitted inhibition curve with a large enough effect in the signal ratio in the repeat runs, with a control signal flat; inconclusive = weak or mixed curves, or effect the other way; the % refers to the signal ratio; also: potency is read from the fitted curve at half-maximal effect; as to activity change, negative = inhibition: % is scaled to controls: 0 for no effect and ±100 for the full control effect); conditions: HEK293-DRD2 cAMP HTRF antagonist mode; activity change, negative = inhibition: at 92.4 µM (top of the series) unless noted
# Outline: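 DRD2-HEK293; 0.1 mM Ro20-1724; cpd 10 min RT; NKH477 200 nM + quinpirole 12 nM, 30 min RT; HTRF cAMP (cAMP-d2/anti-cAMP cryptate), 665/620 nm ratio after 1 h.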
# [8] = target: 5-hydroxytryptamine receptor 2A (Homo sapiens) (UniProt P28223); test: 5-hydroxytryptamine receptor 2A (HTR2A) small molecule antagonists, cell-based qHTS assay (AID 1963586); also: nearly all actives have a fitted effect of over 45% in size; also: potency is read from the fitted curve at half-maximal effect
# Outline: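 CHO cells stably expressing human HTR2A were plated for 18 h at 37 C, then loaded with calcium dye for 1 h. Compounds were preincubated 5 min at room temperature before DOI (4 nM solution) was added. Kinetic fluorescence was read for 3 min.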
# [9] = target: D(2) dopamine receptor (Homo sapiens) (UniProt P14416); test: Dopamine D2 receptor (DRD2) small molecule agonists, cell-based qHTS assay (AID 1963594); conditions: HEK293-DRD2 cAMP HTRF, agonist mode, 30 min; activation: at 92.4 µM (top of the series) unless noted; also: potency is read from the fitted curve at half-maximal effect; nearly all actives have a fitted effect of over 35% in size
# Outline: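 HEK293 cells stably expressing DRD2 were cultured 24 h at 37 C, then given Ro20-1724 (0.1 mM final) and compounds for 10 min at room temperature. NKH477 (200nM) was then added for 30 min. cAMP was read by HTRF.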
# [10] = target: Beta-2 adrenergic receptor (Homo sapiens) (UniProt P07550); test: Adrenergic beta2 receptor (ADRB2) small molecule antagonists, cell-based qHTS assay (AID 1963592); conditions: CHO-ADRB2 cells, isoproterenol-stimulated cAMP HTRF ratio, 0.5 h; activity change, negative = inhibition: at 92.4 µM (top of the series) unless noted; also: % is scaled to controls: 0 for no effect and ±100 for the full control effect; nearly all actives have a fitted effect of over 50% in size
# Outline: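 Assay format: CHO-ADRB2 cells, 18-20hr seeding at 37C/5% CO2, then compound plus 1nM isoproterenol agonist mix for 0.5hr RT. Homogeneous time-resolved fluorescence cAMP detection after 1hr, expressed as 665/615 nm ratio.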
# [11] = target: Muscarinic acetylcholine receptor M1 (Homo sapiens) (UniProt P11229); test: Cholinergic receptor muscarinic 1 (CHRM1) small molecule agonists, cell-based qHTS assay (AID 1963589); also: potency is read from the fitted curve at half-maximal effect; nearly all actives have a fitted effect of over 35% in size
# Outline: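 Kinetic fluorescence (1 s intervals) of calcium-sensitive dye in human M1 CHO cells after compound addition; cells pre-incubated 18 h at 37 C/5% CO2 and dye-loaded 1 h.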
compound,measurement,setting,value
CCCCCCCCCCCC(=O)OCC(O)CO (centres undefined),Potency,[1],"inconclusive: 68.6 µM [activator, partial curve, poor fit]"
same,Potency,[2],"inconclusive: 61.6 µM [activator, partial curve, poor fit]"
same,Potency,[3],"inconclusive: 61.1 µM [rising, partial curve, poor fit]"
CC1(C)CCC[C@]2(C)[C@H]3CC(=O)O[C@]3(C)CC[C@@H]12,Potency,[1],"inconclusive: 68.6 µM [activator, single point]"
same,Potency,[2],"inconclusive: 61.7 µM [activator, single point]"
same,Potency,[4],"inconclusive: 26.5 µM [inhibitor, partial curve]"
same,Potency,[3],"inconclusive: 54.5 µM [fluorescent, partial curve]"
same,Potency,[5],inconclusive: 57 µM [partial curve]
same,activation,[6],inconclusive: -41.7%
same,Potency,[7],"inconclusive: 77 µM [inhibitor, single point]"
O=C(Oc1ccccc1)c1ccc(O)cc1,Potency,[1],"inconclusive: 54.8 µM [activator] and inconclusive: 61.1 µM [activator, partial curve, poor fit]"
same,Potency,[8],active: 26.7 µM and active: 13.3 µM
same,Potency,[6],"inconclusive: 43.5 µM [inhibitor, partial curve] and inconclusive: 68.6 µM [inhibitor, partial curve, poor fit]"
COCCOC[C@H](CC1(C(=O)NC2CCC(C(=O)O)CC2)CCCC1)C(=O)Oc1ccc2c(c1)CCC2 (some centres undefined),Potency,[1],"inconclusive: 61.1 µM [activator, partial curve]"
same,Potency,[2],inactive
same,Potency,[5],"inconclusive: 54.5 µM [activator, partial curve]"
same,Potency,[6],"inconclusive: 77 µM [inhibitor, partial curve, poor fit]"
same,Potency,[7],inactive
Cc1cc(C)cc(OCC2CNC(=O)O2)c1 (centres undefined),Potency,[1],inactive
same,Potency,[2],inactive
same,Potency,[6],inactive
O=C1C(O)=C(O)C(=O)C(O)=C1O,Potency,[1],inactive
same,Potency,[2],active: 0.0477 µM
same,Potency,[3],inactive
COC(=O)/C=C(/C)N,Potency,[1],inactive
same,Potency,[4],inactive
same,Potency,[5],inactive
N#CCCOCCC#N,Potency,[1],"inconclusive: 61.1 µM [activator, partial curve]"
same,Potency,[8],inactive
same,activation,[6],inconclusive: 11.7%
C=C(C)C(=O)OCCO,Potency,[1],inactive
same,Potency,[8],inactive
same,Potency,[6],"inconclusive: 15.7 µM [inhibitor, single point]"
F[B-](F)(F)F,Potency,[1],"inconclusive: 27.7 µM [activator, single point]"
same,Potency,[8],"inconclusive: 438 nM [inhibitor, single point]"
same,Potency,[9],"inconclusive: 10.6 µM [falling, single point]"
Cc1cc(N)c2cc(NC(=O)Nc3ccc4nc(C)cc(N)c4c3)ccc2n1,Potency,[1],inactive
same,Potency,[2],inactive
same,Potency,[3],inactive
same,"activity change, negative = inhibition",[10],inconclusive: 5.84% [at 42.5 µM]
same,Potency,[6],inconclusive: 33.5 µM
CC(C)COC(=O)CC(C(=O)OCC(C)C)S(=O)(=O)O (centres undefined),Potency,[1],"inconclusive: 27.3 µM [activator, single point]"
same,Potency,[8],inactive
same,activation,[6],inconclusive: 36.5%
Nc1cccc([N+](=O)[O-])c1,Potency,[1],"inconclusive: 67.1 µM [activator, partial curve, poor fit]"
same,Potency,[4],active: 0.13 µM
same,Potency,[11],"inconclusive: 0.381 µM [rising, full curve, poor fit]"
same,Potency,[6],inactive
C=COCCCCO,Potency,[1],inactive
same,Potency,[4],"inconclusive: 47.2 µM [inhibitor, single point]"

# Quoted at random: 3 records from the list, in no set order.
compound,measurement,setting,value
COCCOC[C@H](CC1(C(=O)NC2CCC(C(=O)O)CC2)CCCC1)C(=O)Oc1ccc2c(c1)CCC2 (some centres undefined),Potency,[6],"inconclusive: 77 µM [inhibitor, partial curve, poor fit]"
CC1(C)CCC[C@]2(C)[C@H]3CC(=O)O[C@]3(C)CC[C@@H]12,Potency,[3],"inconclusive: 54.5 µM [fluorescent, partial curve]"
COCCOC[C@H](CC1(C(=O)NC2CCC(C(=O)O)CC2)CCCC1)C(=O)Oc1ccc2c(c1)CCC2 (some centres undefined),Potency,[2],inactive
